Measurements reported in US20260317388A1, “SELECTIVE NUCLEAR BLOCKADE FOR THE TREATMENT OF SEPSIS” (priority 2023, published 2026).
At least one peptide structure holds a part that was inferred or is arguable (an end, a ring closure or a residue). Positions of bridges follow the written chain, without caps; N, C: chain ends. Residues, ends and D or L forms follow the SMILES beside them.

Test system: Lungs (genes responding to sepsis)
Experiment: Next-Generation Sequencing (NGS) of gene expression in lungs of CM-challenged mice treated with NTCI
Assay type: in vivo, C57Bl/6J mice
[1] = CM+NTCI vs CM+Saline, lungs, 6 h
[2] = NTCI vs Saline, no sepsis, lungs
[3] = lungs of infected mice, NTCI, Saline 15
[4] = lungs of infected mice, NTCI, Saline 16
[5] = lungs of infected mice, NTCI, Saline 17
[6] = lungs of infected mice, NTCI, Saline 18
[7] = lungs of infected mice, NTCI, Saline 19
[8] = lungs of infected mice, NTCI, Saline 20
[9] = lungs of infected mice, NTCI, Saline 21
[10] = lungs of infected mice, NTCI, Saline 23
[11] = lungs of infected mice, NTCI, Saline 24
[12] = lungs of infected mice, NTCI, Saline 25
[13] = lungs of infected mice, NTCI, Saline 26
[14] = lungs of infected mice, NTCI, Saline 27
[15] = lungs of infected mice, NTCI, Saline 28
[16] = lungs of infected mice, NTCI, Saline 29
[17] = lungs of infected mice, NTCI, Saline 32
[18] = lungs of infected mice, NTCI, Saline 33
[19] = lungs of infected mice, NTCI, Saline 41
[20] = lungs of infected mice, NTCI, Saline 48
[21] = lungs of infected mice, NTCI, Saline 56
[22] = lungs of infected mice, NTCI, Saline 84
[23] = lungs of infected mice, NTCI, Saline 88

Structure (SMILES): CSCC[C@@H]1NC(=O)[C@H](CC(C)C)NC(=O)[C@H](CCCCN)NC(=O)[C@H](CCC(N)=O)NC(=O)[C@H](CCCNC(=N)N)NC(=O)[C@H](CCCCN)NC(=O)[C@H](CCCNC(=N)N)NC(=O)[C@H](CCC(N)=O)NC(=O)[C@H](C(C)C)NC(=O)[C@@H](NC(=O)[C@@H]2CCCN2C(=O)[C@H](C)NC(=O)[C@H](CC(C)C)NC(=O)[C@H](CC(C)C)NC(=O)[C@H](C)NC(=O)[C@H](CC(C)C)NC(=O)[C@H](CC(C)C)NC(=O)[C@@H](NC(=O)[C@H](C)NC(=O)[C@@H]2CCCN2C(=O)[C@H](CC(C)C)NC(=O)[C@H](CC(C)C)NC(=O)[C@H](C)NC(=O)[C@@H](NC(=O)[C@H](C)NC(=O)[C@H](C)N)C(C)C)C(C)C)CSSC[C@@H](C(=O)O)NC(=O)[C@@H]2CCCN2C1=O [cSN50.1] (H-AAVALLPAVLLALLAPCVQRKRQKLMPC-OH; disulfide 17-28)
- genes decreased, lungs (number) [1]: 2,041 genes
- genes decreased, lungs (percent) [1]: 50.7%
- genes increased, lungs (number) [1]: 1,694 genes
- genes increased, lungs (percent) [1]: 42.1%
- genes unchanged, lungs (number) [1]: 292 genes
- genes unchanged, lungs (percent) [1]: 7.3%
- genes significantly expressed, lungs (CM+NTCI vs CM+Saline, lungs, 6 h, of 17,854 genes analyzed): 4,027 genes
- genes significantly expressed in control animals, lungs (percent) [2]: 10.3%
- genes with downward expression in control animals, lungs (number) [2]: 855 genes
- genes with downward expression in control animals, lungs (percent) [2]: 46.5%
- genes with upward expression in control animals, lungs (number) [2]: 981 genes
- genes with upward expression in control animals, lungs (percent) [2]: 53.3%
- genes significantly expressed in control animals, lungs (number) (NTCI vs Saline, no sepsis, lungs, of 17,919 analyzed): 1,840 genes
- susceptibility to NTCI of Il10, Tnf, Ccl3, Ccl4, Ccl12, Nos1 in lungs versus kidneys (lungs compared with kidneys, sepsis, 6 h): more susceptible
- Gm37347 gene expression [3]: 7 fold
- Gm50083 gene expression [3]: 4 fold
- Slc36a3 gene expression [3]: 6 fold
- Sult2a1 gene expression [3]: 3 fold
- Aoah gene expression [4]: 6 fold
- Gm11714 gene expression [4]: 32 fold
- Gm48065 gene expression [4]: 23 fold
- Gm49368 gene expression [4]: 3 fold
- Phox2a gene expression [4]: 19 fold
- Tctex1d1 gene expression [4]: 3 fold
- Gm44165 gene expression [5]: 12 fold
- Prss22 gene expression [5]: 41 fold
- Gm6610 gene expression [6]: −2 fold
- Gm44292 gene expression [6]: 21 fold
- Tat gene expression [6]: 11 fold
- Fcrlb gene expression [7]: 8 fold
- Gm49427 gene expression [7]: 3 fold
- Nxf3 gene expression [7]: 7 fold
- Pde6h gene expression [7]: 10 fold
- Sult2a5 gene expression [7]: 4 fold
- Ubd gene expression [7]: 5 fold
- E030018B13Rik gene expression [8]: 6 fold
- Gm37131 gene expression [8]: 14 fold
- Htr3a gene expression [8]: 9 fold
- Slc13a5 gene expression [8]: 7 fold
- Ceacam10 gene expression [9]: 16 fold
- Gm38275 gene expression [9]: 6 fold
- Gpr22 gene expression [9]: 11 fold
- Tex44 gene expression [9]: 2 fold
- Gm49573 gene expression (lungs of infected mice, NTCI, Saline 22): 1 fold
- Ackr1 gene expression [10]: 12 fold
- B130046B21Rik gene expression [10]: 30 fold
- Ceacam19 gene expression [10]: 3 fold
- Ctcflos gene expression [10]: 17 fold
- Doc2b gene expression [10]: 24 fold
- Ms4a3 gene expression [10]: 2 fold
- 4930578G10Rik gene expression [11]: 22 fold
- Gm37645 gene expression [11]: 4 fold
- Serpina3e-ps gene expression [12]: 16 fold
- Sult1e1 gene expression [12]: 9 fold
- Trdv5 gene expression [12]: 4 fold
- Gm807 gene expression [13]: 45 fold
- Gm26444 gene expression [13]: 16 fold
- Gm11738 gene expression [14]: 556 fold
- Gm29686 gene expression [14]: 9 fold
- Serpine3 gene expression [14]: 10 fold
- Gm4949 gene expression [15]: 81 fold
- Slc22a20 gene expression [15]: 6 fold
- Stfa211 gene expression [15]: 24 fold
- Gm26535 gene expression [16]: 7 fold
- Nkx2-9 gene expression [16]: 4 fold
- Rnase2a gene expression [16]: 6 fold
- Mymk gene expression (lungs of infected mice, NTCI, Saline 31): 11 fold
- Apcs gene expression [17]: 11 fold
- Gm36079 gene expression [17]: 12 fold
- Sult2a3 gene expression [17]: 4 fold
- Gm20406 gene expression [18]: 5 fold
- Rasl10b gene expression [18]: 13 fold
- Gm4948 gene expression (lungs of infected mice, NTCI, Saline 36): 229 fold
- Sectm1b gene expression (lungs of infected mice, NTCI, Saline 37): 38 fold
- 4732490B19Rik gene expression (lungs of infected mice, NTCI, Saline 38): 134 fold
- 4930431P03Rik gene expression (lungs of infected mice, NTCI, Saline 39): 11 fold
- Gm26748 gene expression (lungs of infected mice, NTCI, Saline 40): 13 fold
- Gm38340 gene expression [19]: 26 fold
- Pglyrp3 gene expression [19]: 22 fold
- Ifitm7 gene expression (lungs of infected mice, NTCI, Saline 42): 17 fold
- Slc5a7 gene expression (lungs of infected mice, NTCI, Saline 43): 18 fold
- Tmprss11d gene expression (lungs of infected mice, NTCI, Saline 47): 7 fold
- 1700011B04Rik gene expression [20]: 15 fold
- Asprv1 gene expression [20]: 12 fold
- Dmbt1 gene expression [20]: 118 fold
- Klk9 gene expression [20]: 29 fold
- Bmerb1 gene expression (lungs of infected mice, NTCI, Saline 49): 28 fold
- Serpina7 gene expression (lungs of infected mice, NTCI, Saline 53): 25 fold
- Gm7457 gene expression (lungs of infected mice, NTCI, Saline 54): 43 fold
- A630023A22Rik gene expression (lungs of infected mice, NTCI, Saline 55): 50 fold
- Gm28551 gene expression [21]: 63 fold
- Orm2 gene expression [21]: 12 fold
- Tmem132e gene expression (lungs of infected mice, NTCI, Saline 58): 87 fold
- Stfa3 gene expression (lungs of infected mice, NTCI, Saline 63): 39 fold
- Gm5966 gene expression (lungs of infected mice, NTCI, Saline 67): 30 fold
- Gm32089 gene expression (lungs of infected mice, NTCI, Saline 74): 29 fold
- Gm19510 gene expression [22]: 4 fold
- Gm48786 gene expression [22]: 32 fold
- Cstdc4 gene expression [23]: 80 fold
- Mrgpra2a gene expression [23]: 64 fold
- Tarm1 gene expression (lungs of infected mice, NTCI, Saline 119): 41 fold
- Cstdc5 gene expression (lungs of infected mice, NTCI, Saline 123): 101 fold
- Lbx1 gene expression (lungs of infected mice, NTCI, Saline 167): 105 fold
- Prokr2 gene expression (lungs of infected mice, NTCI, Saline 171): 5 fold
- Stfa2 gene expression (lungs of infected mice, NTCI, Saline 185): 90 fold
- U90926 gene expression (lungs of infected mice, NTCI, Saline 190): 10 fold
- Gm15056 gene expression (lungs of infected mice, NTCI, Saline 200): 17 fold
- Cldn14 gene expression (lungs of infected mice, NTCI, Saline 270): 119 fold
- Gm49383 gene expression (lungs of infected mice, NTCI, Saline 309): 167 fold
